Assay results reported in PubChem BioAssay AID493014 (National Center for Advancing Translational Sciences (NCATS), 2011).
Hit rate of the full screen: of about 340,000 compounds, about 170 (0.05%) were called active. Inconclusive means that the source gave no clear call. Such entries were picked first, then a sample of the others. The call rests on the fitted dose curve; in most records, active means well fitted inhibition curve with a large enough effect in the signal ratio, with a control signal flat (not every such curve was filed as active); inconclusive means small, poorly fitted or top-dose-only effect, or effect the other way, or a change in a side signal; inactive means flat fitted curve, though single readings scatter; the % refers to the signal ratio. Where the call is inconclusive, the potency comes from a doubtful curve fit.

test: qHTS Assay to Find Inhibitors of Chronic Active B-Cell Receptor Signaling; settings: ABC-DLBCL IkBa-CBG/CBR reporter, luminescence ratio (green luciferase fused to IkBa over red control in TMD8 lymphoma cells), 4 h; activity change, negative = inhibition: at 46.1 µM (top of the series);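 on activity change, negative = inhibition: plate controls were basal doxycycline-induced cells for no effect and cells given 10 µM MG132 for full effect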
Method in brief: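 Compounds up to 46 uM were incubated four hours with TMD8 cells whose green CBG68 luciferase is fused to IkappaBalpha; red CBR luminescence normalised the signal, and concentration-effect curves were fitted to fusion, red and ratio data.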
Potency means the concentration at half of the fitted maximal effect.

Structure (SMILES)	activity change, negative = inhibition	Potency
CCOc1cc(N2CCOCC2)c(OCC)cc1NC(=O)CN1C(=O)NC2(CCc3ccccc32)C1=O (stereo not given)	inconclusive: 8.42%	–
O=C(O)c1c(NC(=O)N2CCCC2)sc2c1CCCC2	–	inconclusive: 12.6 µM [falling, single point]
CCOC(=O)c1cc(CC)sc1NC(=O)CCC(=O)O	inconclusive: 5.02%	–
COc1ccccc1/C=C/C=N/NC(=O)CCn1cnc2ccccc21	–	inconclusive: 12.6 µM [falling, partial curve, poor fit]
CC1(c2nnc(-c3ccccc3)o2)CC(c2ccc(Cl)cc2)=NO1 (stereo not given)	inactive	–
CC(C)COn1c(=S)[nH]c2ccccc2c1=O	inconclusive: -25.4%	–
CCOc1ccc(C(=O)NCC(=O)NC(C)c2ccc(-n3ccnc3)cc2)cc1OCC (stereo not given)	inconclusive: -4.75%	–
CCc1sc(NC(C)=O)nc1-c1ccccc1	inconclusive: 1.73%	–
Cc1ccc(-n2ncc3c2CCCC3NC(=O)CCCN2CCCC2=O)cc1C (stereo not given)	inconclusive: -0.905%	–
CC1(C)CC(=O)C=C(NCCN2CCN(C(=O)Nc3ccc(Cl)c(Cl)c3)CC2)C1	inconclusive: 0.882%	–
O=c1[nH]cnc2c1ncn2[C@H]1CC[C@@H](CO)O1	inactive	–
O=C(NCCCN1CCCC1)c1ccc(Cn2c(=S)[nH]c3ccc(Br)cc3c2=O)cc1	–	inconclusive: 10 µM [falling, partial curve]
O=CN/C=C/c1cc(O)ccc1O	–	inconclusive: 14.1 µM [rising, partial curve, poor fit]
C[C@@H]1CC2[C@@H]3CC[C@H]4CC(=O)CC[C@]4(C)C3=CC[C@]2(C)[C@@]1(O)C(=O)CO (stereo not given in full)	inactive	–
Cc1occc1C(=O)NNC(=O)Nc1ccc(Cl)c(Cl)c1	–	inconclusive: 20.6 µM [falling, single point]
O=C(/C=C/c1ccccc1[N+](=O)[O-])c1ccccc1Br	inconclusive: -1.68%	–
O=[N+]([O-])c1cccc(C2(O)COc3ccccc3O2)c1 (stereo not given)	inconclusive: 5.58%	–
CC(C)Cn1c(/C=N/Nc2nc3ccccc3[nH]2)nc2ccccc21	inactive	–
CC(=O)N(Cc1c(C)nn(-c2ccccc2)c1Cl)c1ccc(Cl)cc1	inactive	–
CCOC(=O)C1CCCN(C2=C(NS(=O)(=O)c3ccc(Br)cc3)C(=O)c3ccccc3C2=O)C1 (stereo not given)	inactive	–
CCOc1ccccc1OCCCC(=O)NC1=NCCS1	–	inconclusive: 9.2 µM [rising, partial curve, poor fit]
Cc1cc(N/N=C/c2ccc(F)cc2)nc(-n2nc(C)cc2C)n1	inconclusive: 3.99%	–
O=C(NCCc1nnc2ccc(NCc3ccc(Cl)cc3)nn12)c1ccccc1	–	inconclusive: 7.94 µM [falling, partial curve, poor fit]
OC(CN1C2=NCCCN2c2ccccc21)c1ccc2c(c1)OCO2 (stereo not given)	inconclusive: 1.22%	–
Cc1[nH]nc(SCC(=O)NC2CCCC2)c1[N+](=O)[O-]	–	inconclusive: 35.5 µM [falling, single point]
O=C(CN1CCN(S(=O)(=O)N2CCCCC2)CC1)Nc1ccc(Cl)c(Cl)c1	inactive	–
Cc1ccc2nc(Cl)c(C3CC(c4ccco4)=NN3C(=O)CCCC(=O)O)cc2c1 (stereo not given)	inconclusive: 1.28%	–

Structure (SMILES)	activity change, negative = inhibition	Potency
Cc1ccc2cc(C#N)c(N3CCCN(S(=O)(=O)c4ccccc4)CC3)nc2c1	inactive	–
Oc1ccc(-c2n[nH]c(=S)n2-c2ccc3c(c2)OCCO3)c(O)c1	–	inconclusive: 20.6 µM [cytotoxic, partial curve]
Cc1[nH][nH]c(=O)c1C(c1c(C)[nH][nH]c1=O)c1cn(Cc2ccc(F)cc2)c2ccccc12	–	inconclusive: 23.1 µM [falling, single point]
O=C(NNC(=O)c1cc2ccccc2o1)c1ccncc1	–	inconclusive: 5.8 µM [falling, single point]
O=C(CCCN1C(=O)/C(=C/c2cccs2)SC1=S)Nc1ccc(O)cc1	–	inconclusive: 11.2 µM [falling, partial curve]
C=CCOC(=O)C1=C(C)NC(SCC)=C(C#N)C1c1ccc(Cl)cc1 (stereo not given)	inconclusive: 17.9%	–
COc1ccc(C(=O)[C@@H]2CC[C@](C)(C(=O)O)C2(C)C)cc1	inconclusive: 11.7%	–
CCNS(=O)(=O)c1ccc(CCC(N)=O)cc1	inconclusive: 11.8%	–
COc1ccc(Cl)cc1NC(=O)CN(C)C(=O)c1ccc(OCc2ccccc2)c(OC)c1	inconclusive: 15.9%	–
O=C(Nc1ccc(Br)c2cccnc12)c1ccc(Cn2cc([N+](=O)[O-])cn2)o1	–	inconclusive: 6.51 µM [rising, single point]
COc1ccccc1-n1c(SCC(=O)Nc2ccccc2F)nc2[nH]ncc2c1=O	–	inconclusive: 22.4 µM [falling, single point]
O=C(O)COc1ccc(C(=O)c2ccccc2)cc1	inactive	–
CCOC(=O)c1c(C)[nH]c(C)c1C(=O)COC(=O)c1cc2ccccc2cc1OC	inactive	–
N#Cc1sc2nc(C3CC3)cc(-c3ccc(Cl)cc3)c2c1N	inconclusive: 4.39%	–
CC(C)(C)c1cc[n+](/C(C(=S)Nc2ccccc2F)=C(/[O-])c2ccc3c(c2)OCCO3)cc1	–	inconclusive: 20 µM [falling, single point]
COc1c(Cl)cc(Cl)cc1CNCc1ccccc1	inconclusive: 4.41%	–
COc1ccc(C2Nc3ccccc3-c3cc(C)nn32)cc1OC (stereo not given)	inconclusive: 5.47%	–
COc1ccc(CN=Cc2c(O)[nH]c3ccccc23)cc1	–	inconclusive: 35.5 µM [falling, single point]
Cc1nc(CN(C)C(=O)c2cc(COc3ccc4ncccc4c3)on2)cs1	inactive	–
O=C1NC(=S)S/C1=C/c1ccc(OC(=O)c2ccco2)cc1	–	inconclusive: 12.6 µM [rising, partial curve, poor fit]
CCOC(=O)CCCSc1nc2sc(C)c(C)c2c(=O)[nH]1	–	inconclusive: 2.06 µM [rising, full curve, poor fit]
Cc1ccc(N2CCN(/N=C/c3sccc3C)CC2)cc1	inconclusive: 2.78%	–
COc1ccc([N+](=O)[O-])cc1N(CC(=O)N1CCN(Cc2ccccc2)CC1)S(C)(=O)=O	inactive	–
CC(C)(C)c1ccc(OCc2ccc(C(=O)NN)o2)cc1	inconclusive: -1.89%	–
C=C(C(=O)c1ccccc1)C(c1ccccc1)C(C)C(=O)c1ccccc1 (stereo not given)	inactive	–
O=C(N/N=C/c1cn(-c2cccs2)nc1-c1ccccc1)c1ccccc1O	inconclusive: -17.9%	–
COc1ccccc1CNC(=O)c1ccc(CS(=O)(=O)c2ccc(C)cc2)o1	inactive	–

Structure (SMILES)	activity change, negative = inhibition	Potency
Nc1c(C(=O)NCc2ccccc2)c2nc3ccccc3nc2n1-c1ccc2c(c1)OCO2	–	inconclusive: 23.1 µM [rising, partial curve, poor fit]
COc1ccc(S(=O)(=O)N2CCCCCC2)cc1NC(=O)Cc1ccccc1	inactive	–
Cc1c(C(=O)NCc2cccc(Cl)c2)sc2ncnc(N(C)C3CCCCC3)c12	inactive	–
Cc1ccc(OCC(=O)Nc2ccc(F)cc2)cc1	–	inconclusive: 29.1 µM [falling, single point]
Cc1noc(C)c1CSc1ccc(Br)cc1	inconclusive: 17.5%	–
CN(C)C1=NCC(CSC(=N)N)S1 (stereo not given)	inactive	–
CC(=O)N1CCc2c(sc(NC(=O)CSc3ccccc3)c2-c2nc3ccccc3s2)C1	inactive	–
Cc1cc(NC(=O)CSc2nc(-c3ccco3)cc(C(F)(F)F)n2)n(-c2ccccc2)n1	–	inconclusive: 32.6 µM [falling, single point]
CC1C(=O)N2CCCc3cc(NC(=O)c4ccccc4Br)cc1c32 (stereo not given)	–	active: 23.1 µM
CCc1cccc(C)c1NC(=O)C1CN(S(=O)(=O)c2ccccc2)CCN1S(=O)(=O)c1ccccc1 (stereo not given)	–	inconclusive: 11.6 µM [rising, partial curve, poor fit]
COc1ccc2c(c1)OC[C@H]1[C@H]2N2C(=O)CN(Cc3ccc(F)cc3)C(=O)[C@@]2(C)[C@H]1c1ccccc1	inconclusive: -6.82%	–
COc1ccc(CCC(=O)OCC(=O)Nc2sccc2C(N)=O)cc1OC	inconclusive: -15.2%	–
COc1ccc(NC(=O)N(Cc2cc3cc(OC)c(OC)cc3[nH]c2=O)CC2CCCO2)cc1 (stereo not given)	inconclusive: 16.4%	–
CC(=O)Nc1ccc(Oc2cncc(Cl)c2)nc1	inconclusive: 3.14%	–
O=C(Nc1ccc(-c2nc3cc(Cl)ccc3c(=O)o2)cc1)c1ccco1	inconclusive: 1.26%	–
O=C(CCC(=O)Nc1cccc2ccccc12)N/N=C/c1ccco1	inconclusive: 6.4%	–
N#CCCCC#Cc1ccc2c(c1)COc1c3ccccc3nn1-2	inconclusive: 19.8%	–
CSc1ccccc1NC(=O)c1ccc(CN2CCOCC2)cc1	inactive	–
COc1ccc(CCNC(=O)C(=O)NCC2OCCN2S(=O)(=O)c2cc(F)ccc2F)cc1OC (stereo not given)	inconclusive: 15%	–
COc1cc2ccccc2cc1C(=O)Nc1ccc(N2CCN(C(=O)C(C)C)CC2)cc1	inactive	–
CSc1ccc(S(=O)(=O)N(C)Cc2ccccc2)cc1	inactive	–
COc1cc2ccccc2cc1C(=O)Nc1ccccc1N1CCCC1	inconclusive: 15.4%	–
COc1ccccc1N(CC(=O)NCc1ccccc1C)S(=O)(=O)c1ccc(C)cc1	inconclusive: -25.4%	–
CN(CC1COCCO1)C(=O)c1cc(COc2c(F)cccc2F)on1 (stereo not given)	inconclusive: -1.49%	–
Nc1c(-c2ccccc2)c(CN2CCOCC2)nn1-c1ccc(F)cc1	inconclusive: -9.49%	–
CCSc1nc2c([nH]c3ccccc32)c(=O)n1CC	inactive	–

Reformatted bar-delimited: three of the compounds above
Structure (SMILES) | activity change, negative = inhibition | Potency
CSc1ccccc1NC(=O)c1ccc(CN2CCOCC2)cc1 | inactive | –
COc1ccc(CCNC(=O)C(=O)NCC2OCCN2S(=O)(=O)c2cc(F)ccc2F)cc1OC (stereo not given) | inconclusive: 15% | –
COc1cc2ccccc2cc1C(=O)Nc1ccc(N2CCN(C(=O)C(C)C)CC2)cc1 | inactive | –
